In all, about 330,000 compounds went through this assay and about 7,700 (2.3%) were called active. This list was built around the results that the source calls inconclusive (neither active nor inactive); the mix of calls is not that of the screen. Calls come from the whole dose curve; as a rule, active = well fitted inhibition curve with a large enough effect; inconclusive = small, poorly fitted or top-dose-only effect, or effect the other way; inactive = flat fitted curve, though single readings scatter. Where the call is inconclusive, the potency comes from a doubtful curve fit.
Test: qHTS screen for small molecules that inhibit ELG1-dependent DNA repair in human embryonic kidney (HEK293T) cells expressing luciferase-tagged ELG1; note: nearly all actives have a fitted effect of over 55% in size
Details: HEK293T ELG1-luciferase reporter, luminescence, 16 h, DNA damage induced by 5-fluorouridine; series mostly up to 46.1 µM
In short: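 HEK293T cells expressing luciferase-tagged ELG1 (2,000/well) received 5-Fluorouridine plus compound or DMSO for 16 hr at 37 °C. Luciferase was read by ONE-Glo luminescence after 30 min at room temperature.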
Potency is the fitted concentration of half-maximal effect.

| Structure (SMILES) | Potency |
| --- | --- |
| COc1ccc(-c2cc3c(=O)n(CC(=O)NCc4cccnc4)ncn3n2)cc1 | inconclusive: 6.51 µM [activator, partial curve] |
| COc1ccccc1N1CCN(C(=O)c2ccc3c(Cl)c4c(nc3c2)CCCC4)CC1 | inconclusive: 23.1 µM [inhibitor, single point] |
| O=C(CNC(=S)NC(=O)c1ccc(Cl)cc1)c1ccccc1 | inconclusive: 16.4 µM [activator, partial curve, poor fit] |
| CC1CCN(c2ccc3nnc(CCC(=O)NCC(C)c4ccccc4)n3n2)CC1 (stereo not drawn) | inconclusive: 20.6 µM [inhibitor, single point] |
| O=c1[nH]nc(Cc2ccc3ccccc3n2)c2ccccc12 | inconclusive: 16.4 µM [activator, partial curve] |
| CCOC(=O)C1CCN(C(=O)CCc2c(C)nc3cc(-c4ccc(OC)cc4OC)nn3c2C)CC1 | inconclusive: 7.3 µM [inhibitor, partial curve] |
| CC(C)c1ccc(N2C(=O)CC(Sc3nc4ccccc4o3)C2=O)cc1 (stereo not drawn) | inconclusive: 20.6 µM [activator, partial curve] |
| N#Cc1c(NC(=O)COC(=O)C2CC3C=CC2C3)oc(-c2ccccc2)c1-c1ccccc1 (stereo not drawn) | inactive |
| COc1ccccc1C(=O)NCCCNC(=O)c1cccnc1 | inconclusive: 29.1 µM [inhibitor, single point] |
| COc1ccc(CCNC(=O)c2cc3c(=O)n4ccccc4nc3n(CCCN3CCOCC3)c2=N)cc1OC | inconclusive: 16.4 µM [inhibitor, partial curve, poor fit] |
| C=CCNC(=O)c1ccc(C(=O)c2ccccc2)cc1 | inconclusive: 0.731 µM [activator, single point] |
| CCn1c(SCC(=O)Nc2sc(C)c(C)c2C#N)nnc1C1CC1 | inconclusive: 29.1 µM [inhibitor, single point] |
| CC(C)NOC(=O)c1ccc(Cl)cc1 | inconclusive: 29.1 µM [activator, partial curve, poor fit] |
| Cc1c(C(=O)NCCN2CCOCC2)oc2ccccc12 | inconclusive: 10 µM [activator, partial curve] |
| CCOC(=O)CNC(=O)c1cn(C)c(=O)c2cc(OC)c(OC)cc12 | inconclusive: 29.1 µM [activator, single point] |
| CCCCn1nnnc1NCc1ccc(OC)c(OC)c1OC | inconclusive: 8.2 µM [activator, partial curve, poor fit] |
| O=[N+]([O-])c1cccc(S(=O)(=O)Nc2cccc(-c3ccc(N4CCCC4)nn3)c2)c1 | inconclusive: 20.6 µM [activator, single point] |
| Cc1cccc(-c2noc(CN(C(=O)c3ccc4c(c3)OCO4)C(C)C)n2)c1 | inconclusive: 25.9 µM [inhibitor, single point] |
| Cn1c(C2=C(O)CN(Cc3ccccc3)C2=N)nc2ccccc21 | inconclusive: 11.6 µM [activator, partial curve] |
| CNc1cnn(-c2ccc(C)cc2)c(=O)c1Cl | inconclusive: 2 µM [activator, full curve, poor fit] |
| CC(SCc1ccccc1)C(=O)N/N=C/c1ccc(OCC(=O)NCc2ccco2)cc1 (stereo not drawn) | inconclusive: 18.4 µM [inhibitor, single point] |
| CN1CCN(CCCNC(=O)c2ccc(/C=C3\Oc4ccccc4N(Cc4ccccc4F)C3=O)cc2)CC1 | inconclusive: 23.1 µM [activator, single point] |
| Cc1ccc(-c2ccc(CCC(=O)O)n2-c2cccc(O)c2)cc1 | inactive |

| Structure (SMILES) | Potency |
| --- | --- |
| COC(=O)COc1cccc2c(=O)n(CC(=O)NCc3ccccc3)ccc12 | inconclusive: 1.64 µM [inhibitor, partial curve, poor fit] |
| COc1cnc(-c2ccccn2)nc1N(C)C | inconclusive: 3.66 µM [inhibitor, single point] |
| CC(C)CCn1c(COc2ccccc2)n[nH]c1=S | inactive |
| Cc1cc(C)c2cc(C(O)c3nnnn3Cc3ccccc3)c(=O)[nH]c2c1 (stereo not drawn) | inactive |
| Cc1cc(NC(=O)CN2C(=O)NC3(CCCCCC3)C2=O)no1 | inactive |
| CCNC(=O)c1cc2c(=O)n3cccc(C)c3nc2n(CCc2ccccc2)c1=N | inconclusive: 4.61 µM [inhibitor, single point] |
| COc1ccc(S(=O)(=O)N2CCOC23CCN(S(=O)(=O)c2cccs2)CC3)cc1 | inactive |
| N/C(=N\OC(=O)CCC1CCCC1)c1ccncc1 | inconclusive: 20.6 µM [activator, partial curve] |
| Cc1cccc(C(=O)N[C@H](C(=O)Nc2ncc(C)s2)C(C)C)c1 | inconclusive: 2.91 µM [activator, partial curve] |
| COc1ccc(-c2csc(Nc3ccc(S(N)(=O)=O)cc3)n2)cc1OC | inconclusive: 18.3 µM [inhibitor, single point] |
| Cc1cc(C(=O)CSc2nnnn2-c2ccc(O)cc2)c(C)n1C | inconclusive: 20.6 µM [activator, single point] |
| O=C(NCc1cn(-c2ccccc2)nc1-c1ccccc1)c1ccc([N+](=O)[O-])cc1 | inconclusive: 23.1 µM [inhibitor, single point] |
| O=C(c1ccc(-c2ccccc2)cc1)C1CCCN(Cc2ccncc2)C1 (stereo not drawn) | inconclusive: 2.91 µM [activator, partial curve] |
| Cc1[nH]n(-c2ccccc2)c(=O)c1/C=N/N(c1ccccc1)c1ccccc1 | inconclusive: 23.1 µM [inhibitor, single point] |
| O=C(OCC(=O)N1CCc2ccccc2C1)c1ccc(F)cc1Cl | inconclusive: 20.6 µM [activator, single point] |
| Cn1c(=O)c2sccc2n2c(CCCC(=O)NCCc3ccccc3)nnc12 | inconclusive: 10.3 µM [activator, partial curve, poor fit] |
| Fc1ccc(-c2cc3nc4c(c(N5CCOCC5)n3n2)CCCC4)cc1 | inactive |
| S=c1cnc2ccccc2[nH]1 | inactive |
| Cc1oc(-c2ccccc2)nc1CS(=O)CC(=O)N1CCc2ccccc2C1 (stereo not drawn) | inactive |
| CCCCNC(=S)N(Cc1ccco1)Cc1cc2cc3c(cc2[nH]c1=O)OCCO3 | active: 14.6 µM |
| CCc1ccc(/C=C2\SC(=S)N(CCCC(=O)Nc3nccs3)C2=O)cc1 | inactive |
| Cc1nc2ccccc2n1CC(=O)NCc1ccccc1 | inactive |
| COC(=O)Cc1ccc(NC(=S)NCc2ccccc2OC)cc1 | inactive |

Fetched by compound from above:

| Structure (SMILES) | Potency |
| --- | --- |
| Cc1[nH]n(-c2ccccc2)c(=O)c1/C=N/N(c1ccccc1)c1ccccc1 | inconclusive: 23.1 µM [inhibitor, single point] |
| N/C(=N\OC(=O)CCC1CCCC1)c1ccncc1 | inconclusive: 20.6 µM [activator, partial curve] |

(further entries)

| Structure (SMILES) | Potency |
| --- | --- |
| Cc1cc(C)n2c(nc3ccccc32)c1C(=O)NCc1ccccc1 | inactive |
| CC1(C)CCc2cc(S(=O)(=O)N3CCN(S(=O)(=O)c4c(F)cccc4F)CC3)ccc2O1 | inconclusive: 23.1 µM [activator, partial curve] |
| CCC(C)c1ccc(-c2cc(C(=O)OCC(=O)Nc3cc(C)on3)c3ccccc3n2)cc1 (stereo not drawn) | inconclusive: 2.31 µM [activator, full curve] |
| COCCNC(=O)[C@@]1(Cc2ccccc2)C=C[C@@H](C)N1C(C)=O | inconclusive: 29.1 µM [activator, single point] |
| CC(C)=CC(=O)Nc1ccc(Br)cc1 | inconclusive: 8.2 µM [activator, partial curve] |
| CCN(CC(=O)Nc1ccccc1OC)C(=O)c1ccc(NS(=O)(=O)c2ccc(C(C)=O)cc2)cc1 | inactive |
| O=C(CNC(=O)c1cn2ccccc2n1)Nc1ccc(F)c(F)c1 | inconclusive: 11.6 µM [activator, partial curve] |
| Cc1c(Cl)cccc1NC(=O)CNC(=O)CCS(=O)(=O)c1ccc(F)cc1 | inactive |
| COc1cc(/C=N/n2nnnc2N)ccc1OC(C)C | inconclusive: 18.3 µM [activator, partial curve, poor fit] |
| CCOC(=O)[C@@H]1[C@H]2COc3ccc(Br)cc3[C@H]2N2C(=O)N(c3ccc(F)cc3)C(=O)[C@]12C | inconclusive: 32.6 µM [activator, single point] |
| Cc1cc(NC(=O)c2ccc(-c3ccccc3[N+](=O)[O-])o2)no1 | inactive |
| Cc1cccc(N2CCN(Cc3cnc(Cl)s3)CC2C)c1 (stereo not drawn) | inconclusive: 29.1 µM [inhibitor, single point] |
| O=C(Nc1ccc(Br)cc1F)c1ccncc1 | inconclusive: 14.6 µM [activator, single point] |
| CN(/N=C/c1ccncc1)c1cnc2ccccc2n1 | inconclusive: 2.59 µM [activator, full curve] |
| CCOc1ccc(N/C=C/C(=O)c2cc(OC)c(OC)c(OC)c2)cc1 | inconclusive: 35.5 µM [inhibitor, single point] |
| COCCNC(=O)c1sc2nc(-c3ccccc3)cn2c1C | inconclusive: 23.1 µM [activator, single point] |
| Cn1nc(-c2ccccc2)cc1NC(=O)c1ccccc1 | inconclusive: 16.4 µM [activator, partial curve, poor fit] |
| Cn1c(CC(=O)Nc2ccccc2)nnc1SCC(=O)NC1CCCC1 | inactive |
| Cc1ccc(S(=O)(=O)N2CCCOC2CNC(=O)C(=O)NCc2ccc3c(c2)OCO3)cc1 (stereo not drawn) | inconclusive: 23.1 µM [inhibitor, single point] |
| Cc1onc(-c2c(Cl)cccc2Cl)c1C(=O)N=S(C)(=O)c1ccccc1 (stereo not drawn) | inactive |
| CCN1CCN(c2ccc(NC(=O)c3ccc([N+](=O)[O-])o3)cc2Cl)CC1 | inconclusive: 20.6 µM [inhibitor, single point] |
| Cc1cnc(NC(=O)Cc2ccc(S(=O)(=O)N3CCOCC3)s2)s1 | inconclusive: 18.3 µM [activator, single point] |

Some values from the entries so far.
Entry of `Cc1cc(C)n2c(nc3ccccc32)c1C(=O)NCc1ccccc1` under Potency: inactive
Entry of `Cc1cccc(-c2noc(CN(C(=O)c3ccc4c(c3)OCO4)C(C)C)n2)c1` under Potency: inconclusive: 25.9 µM [inhibitor, single point]

Reference: PubChem BioAssay AID504467 (National Center for Advancing Translational Sciences (NCATS), 2011)
